Experiment [1] addresses recombinant MAGEA4 (UniProt P43358). Nature of the experiment: Western blot; recombinant MAGEA4 in lane B, human antibody as probe. (In general: A western blot detects proteins with antibodies after separation by electrophoresis.)
Experiment [2] shares this target. Nature of the experiment: Western blot on recombinant protein.

Chains of the proteins cited; added tags and fusions are not shown.
UniProt P43358: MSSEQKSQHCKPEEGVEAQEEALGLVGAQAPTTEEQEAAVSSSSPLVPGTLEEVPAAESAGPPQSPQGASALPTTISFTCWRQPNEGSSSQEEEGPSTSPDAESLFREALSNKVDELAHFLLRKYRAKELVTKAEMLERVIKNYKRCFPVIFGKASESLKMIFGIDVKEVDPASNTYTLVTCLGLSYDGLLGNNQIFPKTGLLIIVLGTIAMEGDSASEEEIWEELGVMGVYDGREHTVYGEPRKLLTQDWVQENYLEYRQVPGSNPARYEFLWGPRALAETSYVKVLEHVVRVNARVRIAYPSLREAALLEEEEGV

Data on one molecule can be found in patent publication US20140093514A1.

Results are given in words; binding and its absence hold for the method and conditions named.

B1: 20C10 (antibody, V domains shown)
VH: QLQLQESGPGLVKPSETLSLTCTVSGDSISASTDSWGWIRQSPGKGLEWIGVTSYSGRPYYNPSLKRRVTISVDTSKNHFSLKLTSVTAADRALYYCARRPSLIWAFDIWGQGTMVTVSS
VL: QSALTQPASVSGSPEQSITISCTGTSSAVGNYNLVSWYQHHPGKAPLLIIYDVNERPSGVSHRFSGSRSGNTASLTISGLLAEDEADYFCCSYGGTSSLHYVFGTGTRVTVL
Turning to B1, the binding result in experiment [1] and in experiment [2] was “no binding” in each case.
